Screen size: about 52,000 sequences; about 210 (0.4%) were called active.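 How the source made its calls: active means gene whose silencing raises cell survival under the drug, median off-target-corrected z-score across its silencing RNAs 2 or more; inactive means the rest.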 Some of the results follow.

A short description of the experiment: Resistance to Poly (ADP-Ribose) Polymerase inhibitor: Gene Identification via Genome-wide siRNA Screen. Particulars: mouse BRCA2 R2336H ES cells, olaparib, CellTiter-Glo viability; hits give high values. In a few lines: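 Genome-wide siRNA screen (3 siRNAs/gene, 20 nM) in mouse ES cells carrying hypomorphic BRCA2 R2336H; olaparib 500 nM added 48 h post-transfection, CellTiter-Glo viability 72 h later. Normalized to plate-median negative control; MAD z-scores, gene median, seed-adjusted.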
(In general: Cellular ATP, detected with luciferase, serves as a proxy for viable cell number.)
In the case of CGUUAGCAGGAUGUUAAACTT against Ropn1, the z-score is inactive: -0.641.

On to GCACAACAAGCGAUGUCAUTT against Myo9b, for which the z-score was inactive: -1.14.

As for GGUGUCCAGUCAAUAAGAGTT against Msx3, the z-score was inactive: -0.501.

GCACCUUUGACAGAAGAACTT against Ptf1a: the z-score is inactive: 0.687.

Consider GGGCCAUGCUAGAUUUGCUTT against Scamp1, for which the z-score is inactive: 1.12.

As to “GGAAGUUGUAGGAGAAAACTT against D130054N24Rik”, the z-score was inactive: -0.697.

Take CCCUGUUAGUGUCUCUAUUTT against Tas2r113: the z-score is inactive: 0.267.

In the case of CCCUGAUAUAUACACAUACTT against Pofut1, the z-score was inactive: -1.45.

Take GGAAAUCGUGCCUAGUCUGTT against Cdk3: the z-score is inactive: 1.1.

On to CCCGGUUAGCCUUUGAUUGTT against Lamc3, for which the z-score is inactive: 0.532.

GGCUACAAGGUUCGCUAUGTT against Fgfr1: the z-score was inactive: 0.56.

As for CCUUCCUAGAGUAAUCAAATT against Olfr1289, the z-score was inactive: 0.466.

For the sequence GGAAAAUGGGUCAAAUUUGTT against Nudt5, the z-score was inactive: -0.0207.

For GCAAUCCGGCGAUAAGAAUTT against BC031181, the z-score was inactive: -0.811.

Consider GGAGAAGAGAAUCAACUGCTT against Pou2f3, for which the z-score is inactive: 0.293.

Turning to “GGGUCCUGCUCAACAUCAUTT against 6330569M22Rik”, the z-score was inactive: -1.78.

Take GGACAAGUCCGAGAAGACATT against Glo1: the z-score is inactive: 0.2.

As to GGUUCUCGGUAAAUCCUGCTT against Ugalt2, the z-score is inactive: 0.92.

In the case of GGCCAAGAAGAGAAAAACATT against Ccne2, the z-score was inactive: -0.992.

Take GGCCAGUUGCUCAAAUUAUTT against Olfr460: the z-score is inactive: 0.316.

Regarding CGAUUACUUGGAAAACCAATT against Ifnt1, the z-score is inactive: -1.55.

As to CCUAAUCUCUUGUAGGUAUTT against LOC245128, the z-score is inactive: 0.00511.

Regarding “GGUUAAAAGAGGUGAUUAGTT against 1700020C11Rik”, the z-score was inactive: -0.375.

As for GGACAGAGGCCACAGAGAATT against Hrc, the z-score is inactive: -1.23.

As to GGAGAAUGCACAGGUCAUGTT against Ubxd2, the z-score was inactive: -1.56.

In the case of CGAUGACGGGAAAUAAUUUTT against Snx4, the z-score was inactive: -1.76.

Turning to GGAGGAUGAGCAAGACAACTT against Lbh, the z-score was inactive: -1.33.

Turning to GCGUGUUCGCUUCUUGCUATT against Trub2, the z-score is inactive: -0.132.

For “GGAUUCCCAACACUUGAAUTT against 2510048K03Rik”, the z-score was inactive: 0.896.

For GGAUGUUAACAUUGAGCAATT against Asb11, the z-score is inactive: 1.78.

Regarding GGCAUGAAUACAUCACAGCTT against V1rh12, the z-score is inactive: -0.946.

On to CGGAUUCAUCAGUUUGGUATT against Cdc7, for which the z-score is inactive: 0.728.

Turning to GCAUAGAUUGAUGGCUAAUTT against Chd8, the z-score is inactive: -2.01.

For GGCAUCUUUUGGGCAGCAGTT against Scrg1, the z-score was inactive: 1.9.

For GGUAAAGAGACACAAGGUGTT against Gjb1, the z-score is inactive: 0.424.

As for GGUAUCAUAUGAUAAAGCATT against Npy5r, the z-score is inactive: -0.14.

Take GGGACAAUACCAAUUUCUCTT against Car15: the z-score was inactive: -0.39.

As for GGAUAAUUCAGACAACAAUTT against Fus, the z-score was active: 3.47.

Take CCAGUUGUCUAGACCUGCATT against Ptbp1: the z-score is inactive: -0.866.

As for CGAAUACUGGACCAUGAUUTT against S100a16, the z-score is inactive: 1.62.

For CCUUCAUCCAAGGACGAUGTT against Olfr781, the z-score is inactive: -0.172.

In the case of GGGAAGAUCUUCAGGAAAATT against Cbr3, the z-score was inactive: 0.342.

Turning to GGAGAUAUCACACAAAUCCTT against Gabrg1, the z-score is inactive: 0.479.

For the sequence UGCAAAGGGAAUUGUGCUGTT against Rps23, the z-score is inactive: -2.72.

On to GGAAGACUGUUUUGAGUACTT against AA881470, for which the z-score was inactive: 0.466.

Consider GGAUCACGCCUUUUGUCAUTT against Lgtn, for which the z-score was inactive: 0.529.

In the case of GGUAGUAGUAAGCCAUAAATT against Exoc8, the z-score was inactive: -0.285.

Regarding “GGACACAGAUCUGAUGACCTT against E130310K16Rik”, the z-score is inactive: 0.075.

On to “GGAAGUUUCAGUCAAGAAGTT against 2600005C20Rik”, for which the z-score was inactive: -0.215.

Regarding GCCGGAUGCAGGUUAUUAUTT against Wdr33, the z-score was inactive: 0.245.

As to CCAGGAUUUUCUUACACGGTT against Cyct, the z-score is inactive: -0.0282.

Take CGGACACAUGAUUGUCUUCTT against Npas1: the z-score is inactive: 0.319.

For GCAACAGUGCUUUAGAUUCTT against Gpr141, the z-score is inactive: -0.201.

Regarding CCAACUGUAGAUGUAUAUATT against Pmp22, the z-score was inactive: 0.0495.

As for GGUGUCACCUUGUUACAACTT against Arrdc4, the z-score is inactive: -0.176.

On to CGAUAUGAAGCGAAAUAUCTT against Pmpca, for which the z-score is inactive: -2.47.

In the case of “GGUCCAAGACAGCAACAUGTT against C330001K17Rik”, the z-score was inactive: 0.762.

On to GGAAGACUUGAAUUCUCUGTT against Tex101, for which the z-score is inactive: -0.247.

With “GCACUUGUGACUAUAAAGUTT against B230218O03”, the z-score is inactive: 1.61.

On to GGACCGCCGUGUAAUGAUCTT against Myst4, for which the z-score is inactive: -0.577.

Consider GCAACCUCUUCAGCUUACATT against Fjx1, for which the z-score was inactive: -0.328.

Consider “GGAUUCAAAGUACCAAGUGTT against 4930463G05Rik”, for which the z-score was inactive: -0.677.

With GGAAAUCAGUGCCAACAACTT against Accn5, the z-score is inactive: -0.987.

Turning to GAUACCAAGCUAAAAGAUCTT against Ear10, the z-score is inactive: 0.0287.

On to GGCAAAGCAACAAUAUCUATT against Cct7, for which the z-score is inactive: -1.17.

Regarding GGACAAUGUGGUGCUGUCCTT against Slc34a3, the z-score was inactive: -0.874.

For GGUGCAUUAUCUUGGUUCGTT against Hmga2, the z-score was inactive: -1.03.

Consider CCCAAAAUUAUGGAAGCCATT against Abpd, for which the z-score was inactive: -0.0901.

As to GGCUUCAUUCUUGUCCUCCTT against Pap, the z-score was inactive: 0.472.

As for “GGAAUCUAUAAAGGAGACCTT against 1110032D12Rik”, the z-score was inactive: -0.271.

For the sequence GGCAUAUCAGACAACAAGATT against Tcte1, the z-score is inactive: 0.0932.

Turning to GGAGCUUAGUUACCCACAUTT against Drg2, the z-score is inactive: -0.589.

As to “GGUUUCUGUCCAGAUAAAATT against 0610042I15Rik”, the z-score is inactive: 0.185.

In the case of “GGGAAGGAUCACGAGGUUGTT against 1810033A06Rik”, the z-score is inactive: -2.51.

For GGUAUUUGUGCCAAUUGCCTT against Ccr6, the z-score is inactive: 0.0101.

As to GGAUCAGUAAAGCAAAAAUTT against Lsamp, the z-score is inactive: 2.52.

Turning to GGCGAAUGAAGGUUUCUGGTT against Pex11b, the z-score is inactive: 0.846.

Consider “CGUGAAGGACAUGUCUAAATT against 5730470L24Rik”, for which the z-score is inactive: 0.471.

With GGGAGAGACUAACUUGUUUTT against Hpvc2, the z-score was inactive: 0.845.

In the case of “CCGAAUUCCAACCUAGAGCTT against 2610311I19Rik”, the z-score was inactive: -1.1.

Take GGUUUGAGAAAUUGGACAUTT against Pou6f1: the z-score is inactive: -0.732.

For GGCUUUGAUCAGCAUGAGCTT against Pak4, the z-score was inactive: -1.03.

For the sequence GGAGCAGCGGGUUUAUUGUTT against Mfn2, the z-score was inactive: 0.19.

With GGUGAUCUGGACCAAGAUGTT against Lcp1, the z-score is inactive: 1.25.

As to “GGUCAUUGGUUCCUCCCUUTT against 4932409I22Rik”, the z-score was inactive: -0.336.

Regarding CGGAGUGUACCAUCUACACTT against Agpat4, the z-score is inactive: -1.45.

For the sequence CCCUGACAGAUUAAUUUCATT against Zbed3, the z-score was inactive: -1.61.

For the sequence GGCAUAGUUGCUGUUCUCUTT against Slc9a9, the z-score is inactive: 0.354.

Regarding GCAUUUAAAAUACACGGUGTT against Arg1, the z-score is inactive: -1.47.

With GGCUCAAGUAUGAGAAUGATT against Krt1-15, the z-score is inactive: -1.4.

With GGCAGCUAAGAAUGGAGCATT against Mir16, the z-score was inactive: 0.366.

Turning to CCAAGAAGAGUUAUGUAAUTT against Depdc1a, the z-score was inactive: -0.716.

As to GGAGUUGGGUAUCAUUAAGTT against Gphb5, the z-score was inactive: 0.127.

Take GGAACCACUACAAAAGUUGTT against Si: the z-score was inactive: 0.242.

As to GUAUUUUACAUAAACAGGGTT against V1rc28, the z-score is inactive: 0.102.

Take GAAAGCGAUGGAGAUCUUATT against Cxcl4: the z-score is inactive: -0.0865.

For the sequence GGUUUAGCUGCAUUAAAAGTT against Lrrc27, the z-score is inactive: 1.81.

As for “CCGGUUACAAACUCAACUGTT against 4831426I19Rik”, the z-score was inactive: -0.788.

Regarding “CCAGAAAACUCAGUUUGAATT against 6530407C02Rik”, the z-score is inactive: 0.0295.

Regarding GGCAUGUCUACACACCAUCTT against Ankra2, the z-score was inactive: 1.57.

Consider GGACAUGCUCUAUAAGAAGTT against Pabpc5, for which the z-score is inactive: 0.961.

For “GGGAUUUAAAAGGAAAUGUTT against 9830147J24Rik”, the z-score is inactive: 0.719.

For the sequence “GGAUUAUUUCCUUUCUUUGTT against 4933403M22Rik”, the z-score is inactive: -0.422.

Take GCGACUUCAGAUUUCAUUATT against Sfrs2: the z-score is inactive: -2.65.

For the sequence GGUAAUUCAGUCUUAUACATT against Pcdhb21, the z-score was inactive: 1.27.

(Values after PubChem BioAssay AID1347423 (Functional Genomics Laboratory (NCATS/FGL), 2020).)
